# Test results taken from PubChem BioAssay AID624297 (National Center for Advancing Translational Sciences (NCATS), 2012).
# About 6,200 (1.8%) of roughly 340,000 compounds were called active. Inconclusive means that the source gave no clear call. Such entries were picked first, then a sample of the others. Calls follow the shape of the dose curve; as a rule, active = well fitted activation curve with a large enough effect; inconclusive = small, poorly fitted or top-dose-only effect; inactive = no such curve, though single readings can be large or run the other way. A potency beside an inconclusive call is a rough fit, not a confirmed value.
# Test: A quantitative high throughput screen for small molecules that induce DNA re-replication in SW480 colon adenocarcinoma cells. Also: nearly all actives have a fitted effect of over 55% in size. As to re-replication activation: % of control where 0% means no effect.
# Conditions: Hoechst DNA content imaging, 48 h; re-replication activation: at 46.1 µM (top of the series) unless noted
# Procedure, shortened: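 SW480 cells exposed to compounds for 48 hr at 37 C, 5% CO2, then Hoechst-stained 40 min. Nuclear DNA content imaged by fluorescence scanning (405 nm excitation, 500-530 nm emission); re-replication scored as increased high-intensity nuclei.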
# Potency is read from the fitted curve at half-maximal effect.
Compound,Potency,re-replication activation
COC(=O)c1ccc(S(=O)(=O)N2CCc3ccccc32)cc1,"inconclusive: 13 µM [activator, partial curve]",
C=CC(=O)Nc1cccc(Oc2cc(Cl)nc3[nH]ccc23)c1,"inconclusive: 23.1 µM [activator, single point]",
CC(=O)Nc1ccc(C(=O)CSc2nnnn2C2CCCC2)cc1,"inconclusive: 9.2 µM [activator, single point]",
CCOc1cccc2cc(-c3nnc(NCc4ccco4)s3)c(=O)oc12,"inconclusive: 20.6 µM [activator, single point]",
COC(OC)C1(CCc2ccccc2)NC(=O)NC1=O (centres undefined),,inactive: 12%
O=[N+]([O-])c1cc(/C=N/Nc2nc3ccccc3[nH]2)c(O)cc1O,"inconclusive: 3.66 µM [activator, full curve]",
COc1cccc(/C=N/NC(=O)CNC(=O)COc2ccccc2)c1O,active: 3.26 µM,
O=C(O)CSc1nc(-c2ccccc2)nc2c1oc1ccccc12,,inactive: -5.25%
COc1cccc(CNC(=O)C(c2ccc(Cl)cc2)C(C)C)c1 (centres undefined),"inconclusive: 32.6 µM [activator, partial curve, poor fit]",
Nc1c(Cl)ncnc1N/N=C/c1ccccn1,"inconclusive: 0.82 µM [activator, full curve]",
CCOC(=O)/C=c1\s/c(=C\c2ccc(C)cc2)c(=O)n1CC(=O)NCc1ccco1,"inconclusive: 14.6 µM [activator, single point]",
CCCC(=O)NC(c1ccccc1Cl)c1c(O)ccc2ccccc12 (centres undefined),"inconclusive: 29.1 µM [activator, partial curve, poor fit]",
CCCCNC(=O)C(CC)Sc1nc2sc(C(=O)OC)c(C)c2c(=O)n1N (centres undefined),"inconclusive: 32.6 µM [activator, partial curve, poor fit]",
CN(C(=O)c1ccoc1)c1ccc2ccccc2c1,"inconclusive: 23.1 µM [activator, single point]",
Cc1cc(NC(=O)NC(=O)c2ccccc2NC(=O)CN)ccc1Oc1ncc(Br)cn1,active: 2.91 µM,
CC(=O)c1ccc(N2CCC(c3cc(-c4ccc(Cl)cc4Cl)n[nH]3)CC2)c([N+](=O)[O-])c1,"inconclusive: 29.1 µM [activator, single point]",
Cc1csc2nc(NC(=O)c3ccccc3)sc(=O)c12,,inactive: -8.74%
CCOc1ccccc1CNC(=O)CCCC(=O)n1nc(C)c2ccccc21,"inconclusive: 0.164 µM [activator, full curve, poor fit]",
CC(=O)c1cccc(N(C(=O)c2csnn2)C(C(=O)NC2CCCC2)c2ccccc2)c1 (centres undefined),,inactive: -9.05%

# 2 successive entries out of the list so far, for reference:
Compound,Potency,re-replication activation
CC(=O)Nc1ccc(C(=O)CSc2nnnn2C2CCCC2)cc1,"inconclusive: 9.2 µM [activator, single point]",
CCOc1cccc2cc(-c3nnc(NCc4ccco4)s3)c(=O)oc12,"inconclusive: 20.6 µM [activator, single point]",
